Percent effect of library compounds

Measurements from “University of Dundee, Small-Polar-MMV Screening Library” (2021), ChEMBL document CHEMBL3988442.

Results are given as percent effect.
The controls that fix the scale are not given in the record; negative values are as filed.
This is an unselected part of the compounds tested.
Two or more numbers in one place are separate tests of the same structure; such repeats can differ widely.

A: 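Whole-cell growth test on Mycobacterium tuberculosis, read after 3 days in glucose-containing 7H9 medium; the read-out is not stated. Concentration: 50 µM. Direction is inferred from retests: higher values go with more growth inhibition. About 69,000 compounds were tested under these conditions; 1.1% (about 760) showed 50% or more at least once.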
B: 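Growth of Mycobacterium tuberculosis over 4 days (cholesterol / DPPC medium with tyloxapol); the read-out is not stated. Tested at 50 µM. Higher reads as more growth inhibition (inferred: compounds with an IC50 in retests scored well above the rest). Of about 69,000 compounds tested this way, about 370 (0.54%) reached 50% or more in at least one test.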

Compound	A	B
Cc1oncc1C(=O)NCC1(O)CCc2ccccc2C1 (stereo not given)	-13.03%	3.228%
CC1(C)Cc2c(cnn2-c2cccc(F)c2)C(NC2CCSCC2)C1 (stereo not given)	13.23% & 14.72%	9.994%
Nc1nc2c(c(NCc3nccs3)n1)CCN(CC1CCCC1)CC2	26.08%	-0.1401%
O=C(NCCCn1ccnn1)C1CCCN(C2CCCC2)C1 (stereo not given)	-6.023%	-1.773%
Cc1ccc(CNC(c2cccc(F)c2)c2nccn2C)o1.Cl (stereo not given)	23.04%	-18.07%
CC(C)OCCCNC(=O)CS(=O)(=O)Cc1ccc(Cl)cc1	-18.64%	-18.89%
CC(O)CNCc1ccc(OCc2ccc3c(c2)OCCO3)cc1.Cl (stereo not given)	12.58% & 4.454%	-10.97%
CCN(CC1CCOC1)C(=O)CCc1nc(C(C)(C)C)no1 (stereo not given)	1.148%	3.313%
CCCS(=O)(=O)N1CCC2(CC1)CC(=O)N(CCCc1ccccc1)C2	1.056% & 2.257%	-3.31%
Cn1nccc1-c1nc2c(cc1C(=O)O)CCN(CC1CC1)CC2	1.138% & -12.24%	-10.51%
CC(C)n1ccnc1CN1CCCN(C(=O)CC2C=CCC2)CC1 (stereo not given)	-27.8%	-7.486%
CCc1noc(CNc2c(F)cccc2-n2cccn2)n1	-3.619%	-26.73%
Cc1cnc(CCN(C)C(=O)c2cccc(C)c2O)s1	5.396%	2.856%
CCCc1nnc(NC2CCN(C3CCCC3)CC2)o1	20.57%	1.625%
O=C(c1[nH]nc(C2CC2)c1Cl)N1CCN(S(=O)(=O)c2ccccc2)CC1	15.18%	-11.55%
Cc1ccc(N2CC3(CCN(Cc4nccn4C)C3)CC2=O)s1.O=C(O)C(F)(F)F (stereo not given)	-4.99%	-7.422% & -21.3%
NC(=O)N1CCC2(CC1)CN(Cc1cccnc1)C(=O)CO2.O=C(O)C(F)(F)F	-40.48%	-2.115%
CCOC(=O)Cn1ccc(O)c(Cc2ccc(Cl)cc2Cl)c1=O	2.129% & 14.78%	-7.506%
COc1ccc(NC(=O)Cn2nc(C)c(C)cc2=O)c(OC)c1	5.639%	-4.642% & -8.205%
COCC(C)NC(=O)Nc1cc(-c2ccccc2C)nn1CCO (stereo not given)	-12.25%	-2.279%
O=C(CN(CC(O)c1ccc(F)cc1)C1CC1)NC(C1CC1)C1CC1 (stereo not given)	3.854%	-3.028%
COCc1ncn2c1CN(C(=O)c1cnc3ccccc3c1)CC2	16.69%	8.039%
Cn1nnc2c1C(COCC1CC1)CN(C(=O)Cc1cccs1)C2 (stereo not given)	15.31%	-9.816%
COCc1ncn2c1CN(C(=O)Nc1cccc(OC)c1)CC2	-26.05%	-17.94%
Cc1ccc(CNC(=O)Nc2nncs2)n1C	-2.523%	-20.1%
O=C(c1cc(=O)c(OCc2ccccc2F)co1)N1CCSCC1	5.488%	-40.65%
O=C1COc2cc(C(=O)NS(=O)(=O)c3cc(Cl)ccc3Cl)ccc2N1	29.04%	-11.56%
CCS(=O)(=O)N1CCCC2(COCCN(c3nnc(C)o3)C2)C1.O=C(O)C(F)(F)F (stereo not given)	23.65%	-6.655%
Cc1ncn(-c2cc(N3CCN(S(C)(=O)=O)CC3)ncn2)c1C	26.81%	16.43%
Cc1cccc(CN2CCCC(O)(CNCCN3CCCCC3)C2=O)c1 (stereo not given)	-1.217%	-8.055%
CCS(=O)(=O)CCN1CCN(C(C)c2cccnc2)CC1 (stereo not given)	-18.64%	-23.78%
O=C1NC2(CCCCC2)c2nnnn2-c2ccc(Br)cc21	-7.204%	-4.927%
CC(=O)N1CC(=O)N(c2ccsc2)CC12CCN(Cc1ccccn1)C2.O=C(O)C(F)(F)F (stereo not given)	13.89% & 1.358%	2.544%
CC(C)Oc1cc(N2CCC(N3CCC(O)CC3)CC2)nc(N)n1	-3.348%	32.22%
Cc1nn(C)c(Cl)c1C(=O)NCC1(C(N)=O)CCOCC1	14.28%	-11.93%
CC(C)c1csc(C(=O)N(C)c2ccc(Br)cn2)n1	93.34% & 89.15%	73.39%
Cc1cc(CN2CCC(CNC(=O)C3(c4ccccc4)CC3)C2)[nH]n1 (stereo not given)	2.428% & -12.35%	-11.83% & 2.044%
CCc1nc(CC(=O)N2CCn3c(nnc3C(F)(F)F)C2)cs1	-18.19%	9.348%
Cc1cc(C2CCCN(CC(=O)Nc3nc4c(s3)CCC4)C2)n[nH]1 (stereo not given)	32.68%	51.91%
Cc1c(C(=O)NCc2ccnc(OCC(F)(F)F)c2)cnn1C	27.81%	-2.331%
CS(=O)(=O)N1CCCN(C(=O)c2ccc(Cn3ccccc3=O)o2)CC1	5.125%	-28.54%
Cc1cc(C)c(CNC(=O)NCC(c2ccccc2)N(C)C)c(=O)[nH]1 (stereo not given)	-8.379%	-4.69%
CC(C)=CCCC1(C)CCC(=O)N(CCNc2nc(C)cc(=O)[nH]2)C1 (stereo not given)	15.71%	28.27%
COc1ccc(C(=O)N2CCN(CCO)CC2)c(F)c1	-26.77%	-11.87%
CCN1C(=O)C2(CCOCC2)c2cc(NC(=O)c3cccn3C)ccc21	1.862% & 0.2254%	-9.795%
Cc1cc(C)cc(NC(=O)N(CCC#N)CCCN(C)C)c1	-5.192%	-2.209%
N#Cc1ccc(CC(=O)N2CCC(Nc3cccnn3)CC2)cc1	-8.179%	-1.205%
COc1ccc(C(=O)C2CCCN(Cc3ccccc3O)C2)c(OC)c1 (stereo not given)	4.455%	4.878%
Cc1cccc(OCCNC(=O)CN2CCCC2Cn2cccn2)c1 (stereo not given)	31.04%	3.848%
CC(NC(=O)NCCCNS(C)(=O)=O)c1ccncc1 (stereo not given)	-2.373%	-7.027%
Cc1nc(C)n(CC2CCCN(CCCOc3ccc(F)cc3)C2)n1 (stereo not given)	16.91%	-17.8%
Cc1nn(C(C)C)c(C)c1CN1CCC(c2cc(C(C)C)n[nH]2)CC1	15.73%	-10.52%
Cc1cc2[nH]c(CN3CCCCC3c3cccc(F)c3)cc(=O)n2n1 (stereo not given)	20.91%	-1.113%
Cn1ccc(C(=O)NC2CCC23CCN(C(=O)c2ccncc2)CC3)c1.O=C(O)C(F)(F)F (stereo not given)	-27.45%	-30.18%
CC(C)Cn1cnnc1C1CCCN1C(=O)c1cc2ccccn2c1 (stereo not given)	-16.5%	-24.94%
CCCNC(=O)C(C)Oc1ccccc1 (stereo not given)	13.56%	3.396%
Cc1ccccc1OCC(=O)N1CC[C@]2(C[C@@H](OCC3CC3)CO2)C1	17.01% & 2.833%	2.958% & -2.478%
COCCNc1c(-c2ccc(C)cc2)c(=O)c1=O	-15.86%	-33.57%
COC(=O)CC(c1cccnc1)c1oc(C)cc(=O)c1O (stereo not given)	-10.21%	1.895%
CCOc1ccccc1OC1CCN(C(=O)c2cnns2)CC1	-1.706% & -34.7%	-5.574%
CN(Cc1cnc(N)nc1)C(=O)C1CC(=O)N(Cc2ccncc2)C1 (stereo not given)	-0.7089% & -10.19%	-7.129%

For reference, 8 entries once more:

Compound	A	B
N#Cc1ccc(CC(=O)N2CCC(Nc3cccnn3)CC2)cc1	-8.179%	-1.205%
CCS(=O)(=O)CCN1CCN(C(C)c2cccnc2)CC1 (stereo not given)	-18.64%	-23.78%
O=C(NCCCn1ccnn1)C1CCCN(C2CCCC2)C1 (stereo not given)	-6.023%	-1.773%
Cc1c(C(=O)NCc2ccnc(OCC(F)(F)F)c2)cnn1C	27.81%	-2.331%
CC1(C)Cc2c(cnn2-c2cccc(F)c2)C(NC2CCSCC2)C1 (stereo not given)	13.23% & 14.72%	9.994%
CCS(=O)(=O)N1CCCC2(COCCN(c3nnc(C)o3)C2)C1.O=C(O)C(F)(F)F (stereo not given)	23.65%	-6.655%
Cn1nccc1-c1nc2c(cc1C(=O)O)CCN(CC1CC1)CC2	1.138% & -12.24%	-10.51%
Cc1nc(C)n(CC2CCCN(CCCOc3ccc(F)cc3)C2)n1 (stereo not given)	16.91%	-17.8%